# Assay results reported in PubChem BioAssay AID504467 (National Center for Advancing Translational Sciences (NCATS), 2011).
# Hit rate of the full screen: of about 330,000 compounds, about 7,700 (2.3%) were called active. Inconclusive results, whose numbers are uncertain, are shown with a selection of clear calls. The call rests on the fitted dose curve; in most records, active means well fitted inhibition curve with a large enough effect; inconclusive means small, poorly fitted or top-dose-only effect, or effect the other way; inactive means flat fitted curve, though single readings scatter. Potencies beside an inconclusive call are fits to weak or partial responses and may not hold up.
# Assay: qHTS screen for small molecules that inhibit ELG1-dependent DNA repair in human embryonic kidney (HEK293T) cells expressing luciferase-tagged ELG1; further: nearly all actives have a fitted effect of over 55% in size
# Details: HEK293T ELG1-luciferase reporter, luminescence, 16 h, DNA damage induced by 5-fluorouridine; series mostly up to 46.1 µM
# Outline: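 Luminescence from the luciferase reporter, measured 30 min after ONE-Glo reagent at room temperature, was the read-out. Beforehand, 2,000 cells per well were exposed for 16 hr at 37 °C to 5-fluorouridine together with compound or vehicle.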
# Potency means the concentration at half of the fitted maximal effect.
row,SMILES,Potency
1,CCOC(=O)c1cc2c(nc1NC(=S)NCc1ccccc1)CCCC2,"inconclusive: 14.6 µM [activator, partial curve]"
2,Cc1ccc(N2CCN(C(=O)Nc3cccc([N+](=O)[O-])c3)CC2C)cc1 (stereo not given),"inconclusive: 20.6 µM [inhibitor, single point]"
3,Cc1nc2ccccc2n1CCc1nc2c3ccccc3nc(SCC(=O)NCc3ccco3)n2n1,"inconclusive: 29.1 µM [inhibitor, single point]"
4,CCCCC(Nc1ncnc2ccccc12)C(=O)O (stereo not given),inactive
5,O=C(CN(Cc1ccccc1Cl)C(=O)c1csnn1)NCc1ccc(F)cc1,"inconclusive: 16.4 µM [activator, partial curve, poor fit]"
6,COc1ccc(C(Nc2cccc([N+](=O)[O-])c2)P(=O)(OC(C)C)OC(C)C)cc1 (stereo not given),inactive
7,CCCCC1(CO)C(=O)N(c2ccccc2)N(c2ccccc2)C1=O,"inconclusive: 23.1 µM [inhibitor, single point]"
8,COc1ccc(C(=O)NC(=S)Nc2ccc(Cl)c(C(=O)O)c2)cc1,"inconclusive: 29.1 µM [activator, single point]"
9,CC(C)(C)Cc1nnc(NC(=O)c2ccc([N+](=O)[O-])cc2)s1,"inconclusive: 18.4 µM [activator, partial curve]"
10,Cc1cc(/C=N/NC(=O)Cn2c3ccccc3c(=O)c3ccccc32)c(C)n1-c1ccccc1,inactive
11,COc1ccc(NC(=O)O/N=C/c2ccccc2Cl)cc1,"inconclusive: 23.1 µM [activator, single point]"
12,CCCn1c(N)c(C(=O)CSc2nc3ccccc3s2)c(=O)[nH]c1=O,"inconclusive: 1.3 µM [inhibitor, single point]"
13,S=c1[nH]nc(COc2ccccc2)n1/N=C/c1ccc(Br)s1,inactive
14,COc1ccc(-c2c3c(=O)n(C)c(=O)n(C)c3cn2-c2ccccc2O)cc1,inactive
15,CCCCCC(=O)Nc1cc(S(=O)(=O)N2CCOCC2)ccc1Oc1ccc(OCC)cc1,"inconclusive: 25.9 µM [inhibitor, single point]"
16,Cc1cc(Cl)c(OCCn2ccnc2)c(Br)c1,inactive
17,O=C(NCc1ccco1)c1ccccc1O,inactive
18,Cc1ccc(N2C(=S)N=C(Nc3ccccc3C)C23CCOC(C)(C)C3)cc1 (stereo not given),inactive
19,COc1ccc(CNC(=O)C2CC(c3ccccc3C(F)(F)F)=NO2)cc1 (stereo not given),inactive
20,CN(C)c1ccc(/C=N/N(CCC(=O)NC(C)(C)C)C2=NS(=O)(=O)c3ccccc32)cc1,"inconclusive: 4.11 µM [inhibitor, single point]"
21,O=C(Nc1ccccc1)N1CCN(c2cccc(C(F)(F)F)c2)CC1,"inconclusive: 14.6 µM [inhibitor, partial curve, poor fit]"
22,N#CCC(=O)N/N=C\c1ccc(OC/C=C/c2ccccc2)cc1,"inconclusive: 18.3 µM [activator, partial curve, poor fit]"
23,CC(OC(=O)c1ccc2c(c1)OCCO2)C(=O)c1ccccc1 (stereo not given),"inconclusive: 7.3 µM [activator, partial curve]"

row,SMILES,Potency
1,CC(C)N(Cc1nc(-c2ccccc2)no1)C(=O)c1ccc([N+](=O)[O-])cc1,"inconclusive: 29.1 µM [inhibitor, single point]"
2,Oc1ccc(Nc2nc(-c3ccc4ccccc4c3)cs2)cc1,"inconclusive: 3.66 µM [activator, partial curve, poor fit]"
3,Cc1ccc(C)c(N2CCN(C3CCCCC3NS(=O)(=O)c3ccccc3)CC2)c1 (stereo not given),inactive
4,COc1ccc(/C=N/NC(=O)/C(=C/c2ccccc2)CCO)cc1,"inconclusive: 14.6 µM [activator, single point]"
5,CC(=O)Nc1ccc(S(=O)(=O)Nc2ccc(Nc3ccccc3)cc2)cc1,inactive
6,Cc1ccc(S(=O)(=O)N2CCN(C(=O)CNC(=O)c3ccc(Cl)cc3)CC2)cc1,inactive
7,CCOc1ccc(-n2c(SCC(N)=O)nc3c([nH]c4ccccc43)c2=O)cc1,"inconclusive: 20.6 µM [inhibitor, single point]"
8,O=C(CN1CCCC1)N1c2ccccc2Sc2ccccc21,inactive
9,CCCn1c(C)cc(C(=O)COC(=O)c2cc(S(=O)(=O)NCC(C)C)c(Cl)cc2Cl)c1C,"inconclusive: 29.1 µM [inhibitor, single point]"
10,CCN1CCN(C(=O)C(=O)c2cn(CC(=O)N(CC)CC)c3ccccc23)CC1,"inconclusive: 11.6 µM [activator, partial curve, poor fit]"
11,COc1ccc(/C=N/OCC(=O)N=Nc2c(O)[nH]c3ccc(Br)cc23)cc1,"inconclusive: 23.1 µM [inhibitor, single point]"
12,COCc1cc(C)nc(SCC(=O)Nc2nc(C)cs2)c1C#N,"inconclusive: 0.82 µM [activator, partial curve]"
13,COc1ccc(-c2cc(-c3ccc(OC)cc3)c(C#N)c(SC)n2)cc1,inactive
14,CC(C)(C)N(Cc1ccccc1)C(=O)COC(=O)CCc1c[nH]c2ccccc12,"inconclusive: 23.1 µM [inhibitor, single point]"
15,C=CCOC(=O)C(C#N)c1nc2ccccc2nc1N1CCN(c2ccccc2OC)CC1 (stereo not given),active: 13 µM
16,Cc1cc2occ(CC(=O)NNC(=O)c3ccccc3)c2cc1C,inactive
17,Cc1ccc(NS(=O)(=O)c2ccc(C)c(NC(=O)COc3ccc4ccccc4c3)c2)c(C)c1,"inconclusive: 23.1 µM [inhibitor, partial curve]"
18,C=C(C)COc1ccc(-c2n[nH]c(C)c2-c2ccc(Br)cc2)c(O)c1,"inconclusive: 11.2 µM [inhibitor, partial curve, poor fit]"
19,CN(C(=O)CSc1nnc(-c2ccccc2)c(-c2ccccc2)n1)C1CCS(=O)(=O)C1 (stereo not given),inactive
20,Cc1cc(C)c2cc(CN(Cc3cccnc3)C(=O)c3ccc(F)cc3)c(Cl)nc2c1,"inconclusive: 20.6 µM [inhibitor, partial curve]"
21,Cc1ccc2nc(-c3ccc(O)cc3)c(Nc3ccc4c(c3)OCCO4)n2c1,inactive
22,CCCCn1c(N)c(N(CCOC)C(=O)c2cc(CC)c(C)s2)c(=O)[nH]c1=O,inactive

# 3 neighbouring compounds out of the list so far:
row,SMILES,Potency
1,CC(C)N(Cc1nc(-c2ccccc2)no1)C(=O)c1ccc([N+](=O)[O-])cc1,"inconclusive: 29.1 µM [inhibitor, single point]"
2,Oc1ccc(Nc2nc(-c3ccc4ccccc4c3)cs2)cc1,"inconclusive: 3.66 µM [activator, partial curve, poor fit]"
3,Cc1ccc(C)c(N2CCN(C3CCCCC3NS(=O)(=O)c3ccccc3)CC2)c1 (stereo not given),inactive
